Assay results reported in patent publication US6022696A, “Methods of identifying agonists or antagonists of angiotensin IV” (Washington State University Research Foundation, priority 1998, dated 2000).
The match of structure and compound is tentative.

Tested on: rat kidney
Experiment: Renal cortical blood flow (laser doppler) after infusion into the renal artery
Assay type: in vivo
Details: 100 pmol/min where stated

CC[C@H](C)[C@H](NC(=O)[C@@H](N)Cc1ccc(O)cc1)C(=O)N[C@@H](Cc1c[nH]cn1)C(=O)N1CCC[C@H]1C(=O)N[C@@H](Cc1ccccc1)C(=O)O
change in renal cortical blood flow, in words: no effect on renal blood flow
